From the supplement of paper PMC10849652
The other results are listed elsewhere or left out.

Protein sequences, listed by entry. Tags and fused reporters are not part of them. Lines headed by an entry give the natural chain unless they say otherwise; changes in a name come on top.
UniProt O43255: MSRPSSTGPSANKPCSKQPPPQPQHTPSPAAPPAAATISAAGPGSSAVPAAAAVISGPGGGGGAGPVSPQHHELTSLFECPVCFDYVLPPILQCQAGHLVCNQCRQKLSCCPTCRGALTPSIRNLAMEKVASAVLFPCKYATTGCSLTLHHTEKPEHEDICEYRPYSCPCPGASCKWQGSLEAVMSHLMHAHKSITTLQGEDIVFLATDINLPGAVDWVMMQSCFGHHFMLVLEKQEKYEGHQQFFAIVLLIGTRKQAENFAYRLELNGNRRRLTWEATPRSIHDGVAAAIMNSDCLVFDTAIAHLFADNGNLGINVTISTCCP
UniProt P51688: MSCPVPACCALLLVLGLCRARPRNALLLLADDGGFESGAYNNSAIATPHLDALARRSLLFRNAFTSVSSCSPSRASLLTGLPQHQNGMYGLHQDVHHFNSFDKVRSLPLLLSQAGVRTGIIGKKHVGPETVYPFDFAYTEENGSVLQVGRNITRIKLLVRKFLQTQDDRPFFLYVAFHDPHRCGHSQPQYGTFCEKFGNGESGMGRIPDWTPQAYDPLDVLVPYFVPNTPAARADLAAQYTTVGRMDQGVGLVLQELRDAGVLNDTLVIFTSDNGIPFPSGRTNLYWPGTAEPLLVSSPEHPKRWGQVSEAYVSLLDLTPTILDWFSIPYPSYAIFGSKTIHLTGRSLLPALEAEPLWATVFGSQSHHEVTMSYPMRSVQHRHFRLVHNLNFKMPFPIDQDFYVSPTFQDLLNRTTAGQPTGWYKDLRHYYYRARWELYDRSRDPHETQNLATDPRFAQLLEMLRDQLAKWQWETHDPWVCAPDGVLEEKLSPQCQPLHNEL
UniProt Q9NTG7: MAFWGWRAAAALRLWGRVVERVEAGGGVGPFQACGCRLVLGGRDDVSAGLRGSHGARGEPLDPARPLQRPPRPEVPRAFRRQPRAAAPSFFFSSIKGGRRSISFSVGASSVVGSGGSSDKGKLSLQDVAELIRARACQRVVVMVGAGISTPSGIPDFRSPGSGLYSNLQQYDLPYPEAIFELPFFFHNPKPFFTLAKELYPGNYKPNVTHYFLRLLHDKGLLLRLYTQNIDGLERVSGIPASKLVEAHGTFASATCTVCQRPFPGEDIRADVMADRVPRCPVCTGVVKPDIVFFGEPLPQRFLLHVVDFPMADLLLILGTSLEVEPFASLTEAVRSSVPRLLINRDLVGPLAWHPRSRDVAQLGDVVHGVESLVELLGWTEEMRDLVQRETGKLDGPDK
UniProt Q96T21: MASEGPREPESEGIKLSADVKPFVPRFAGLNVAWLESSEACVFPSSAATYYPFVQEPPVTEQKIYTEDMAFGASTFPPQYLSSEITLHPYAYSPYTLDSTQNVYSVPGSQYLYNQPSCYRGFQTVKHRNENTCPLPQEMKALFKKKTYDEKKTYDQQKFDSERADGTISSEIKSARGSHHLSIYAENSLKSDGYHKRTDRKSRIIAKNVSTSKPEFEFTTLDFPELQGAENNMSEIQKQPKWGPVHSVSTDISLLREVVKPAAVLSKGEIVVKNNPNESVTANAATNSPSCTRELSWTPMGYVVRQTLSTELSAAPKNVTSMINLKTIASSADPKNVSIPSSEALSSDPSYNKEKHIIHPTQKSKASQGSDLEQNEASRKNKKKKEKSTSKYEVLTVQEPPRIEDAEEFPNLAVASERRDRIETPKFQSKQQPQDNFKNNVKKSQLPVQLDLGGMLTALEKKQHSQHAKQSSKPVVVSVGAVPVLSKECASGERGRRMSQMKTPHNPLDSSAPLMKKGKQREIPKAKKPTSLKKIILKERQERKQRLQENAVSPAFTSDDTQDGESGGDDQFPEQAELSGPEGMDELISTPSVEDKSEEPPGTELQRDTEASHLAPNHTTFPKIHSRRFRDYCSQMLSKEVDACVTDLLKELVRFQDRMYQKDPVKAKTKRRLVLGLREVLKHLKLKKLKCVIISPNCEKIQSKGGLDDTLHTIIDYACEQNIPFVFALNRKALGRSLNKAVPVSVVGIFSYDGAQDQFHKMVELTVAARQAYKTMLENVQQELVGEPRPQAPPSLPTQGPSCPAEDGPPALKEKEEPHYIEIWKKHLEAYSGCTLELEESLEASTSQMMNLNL
UniProt Q99963: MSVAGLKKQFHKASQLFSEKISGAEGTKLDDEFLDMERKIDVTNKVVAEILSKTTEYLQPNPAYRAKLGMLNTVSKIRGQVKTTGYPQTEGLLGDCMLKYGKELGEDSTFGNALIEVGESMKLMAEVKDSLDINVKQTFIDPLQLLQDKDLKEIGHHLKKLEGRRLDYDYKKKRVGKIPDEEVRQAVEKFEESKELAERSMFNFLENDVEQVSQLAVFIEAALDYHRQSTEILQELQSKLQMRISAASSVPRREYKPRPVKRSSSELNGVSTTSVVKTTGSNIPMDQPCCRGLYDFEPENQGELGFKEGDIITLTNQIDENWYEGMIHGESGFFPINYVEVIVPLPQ
UniProt Q6PI26: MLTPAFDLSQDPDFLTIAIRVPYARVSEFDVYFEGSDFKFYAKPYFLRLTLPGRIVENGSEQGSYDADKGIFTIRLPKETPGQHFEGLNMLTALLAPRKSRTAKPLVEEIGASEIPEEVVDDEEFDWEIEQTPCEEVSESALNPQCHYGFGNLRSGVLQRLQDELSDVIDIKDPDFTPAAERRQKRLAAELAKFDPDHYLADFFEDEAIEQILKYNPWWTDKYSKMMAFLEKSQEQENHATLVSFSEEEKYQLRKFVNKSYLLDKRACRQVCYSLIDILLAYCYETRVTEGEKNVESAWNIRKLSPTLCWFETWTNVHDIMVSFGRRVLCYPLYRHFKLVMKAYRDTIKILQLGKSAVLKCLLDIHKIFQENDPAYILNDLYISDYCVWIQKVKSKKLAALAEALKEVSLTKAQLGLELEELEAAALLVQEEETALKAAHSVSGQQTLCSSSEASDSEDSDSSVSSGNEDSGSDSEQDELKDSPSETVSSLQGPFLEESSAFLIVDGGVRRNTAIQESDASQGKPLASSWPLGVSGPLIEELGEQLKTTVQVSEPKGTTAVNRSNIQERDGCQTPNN
UniProt Q86XK3: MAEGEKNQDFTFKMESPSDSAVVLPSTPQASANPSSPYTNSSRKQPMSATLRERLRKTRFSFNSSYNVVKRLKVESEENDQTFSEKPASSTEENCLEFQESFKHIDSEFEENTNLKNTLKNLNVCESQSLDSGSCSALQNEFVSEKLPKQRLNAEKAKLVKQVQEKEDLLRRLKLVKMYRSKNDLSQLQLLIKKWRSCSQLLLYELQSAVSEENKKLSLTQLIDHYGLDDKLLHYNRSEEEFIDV
UniProt Q9BYW2: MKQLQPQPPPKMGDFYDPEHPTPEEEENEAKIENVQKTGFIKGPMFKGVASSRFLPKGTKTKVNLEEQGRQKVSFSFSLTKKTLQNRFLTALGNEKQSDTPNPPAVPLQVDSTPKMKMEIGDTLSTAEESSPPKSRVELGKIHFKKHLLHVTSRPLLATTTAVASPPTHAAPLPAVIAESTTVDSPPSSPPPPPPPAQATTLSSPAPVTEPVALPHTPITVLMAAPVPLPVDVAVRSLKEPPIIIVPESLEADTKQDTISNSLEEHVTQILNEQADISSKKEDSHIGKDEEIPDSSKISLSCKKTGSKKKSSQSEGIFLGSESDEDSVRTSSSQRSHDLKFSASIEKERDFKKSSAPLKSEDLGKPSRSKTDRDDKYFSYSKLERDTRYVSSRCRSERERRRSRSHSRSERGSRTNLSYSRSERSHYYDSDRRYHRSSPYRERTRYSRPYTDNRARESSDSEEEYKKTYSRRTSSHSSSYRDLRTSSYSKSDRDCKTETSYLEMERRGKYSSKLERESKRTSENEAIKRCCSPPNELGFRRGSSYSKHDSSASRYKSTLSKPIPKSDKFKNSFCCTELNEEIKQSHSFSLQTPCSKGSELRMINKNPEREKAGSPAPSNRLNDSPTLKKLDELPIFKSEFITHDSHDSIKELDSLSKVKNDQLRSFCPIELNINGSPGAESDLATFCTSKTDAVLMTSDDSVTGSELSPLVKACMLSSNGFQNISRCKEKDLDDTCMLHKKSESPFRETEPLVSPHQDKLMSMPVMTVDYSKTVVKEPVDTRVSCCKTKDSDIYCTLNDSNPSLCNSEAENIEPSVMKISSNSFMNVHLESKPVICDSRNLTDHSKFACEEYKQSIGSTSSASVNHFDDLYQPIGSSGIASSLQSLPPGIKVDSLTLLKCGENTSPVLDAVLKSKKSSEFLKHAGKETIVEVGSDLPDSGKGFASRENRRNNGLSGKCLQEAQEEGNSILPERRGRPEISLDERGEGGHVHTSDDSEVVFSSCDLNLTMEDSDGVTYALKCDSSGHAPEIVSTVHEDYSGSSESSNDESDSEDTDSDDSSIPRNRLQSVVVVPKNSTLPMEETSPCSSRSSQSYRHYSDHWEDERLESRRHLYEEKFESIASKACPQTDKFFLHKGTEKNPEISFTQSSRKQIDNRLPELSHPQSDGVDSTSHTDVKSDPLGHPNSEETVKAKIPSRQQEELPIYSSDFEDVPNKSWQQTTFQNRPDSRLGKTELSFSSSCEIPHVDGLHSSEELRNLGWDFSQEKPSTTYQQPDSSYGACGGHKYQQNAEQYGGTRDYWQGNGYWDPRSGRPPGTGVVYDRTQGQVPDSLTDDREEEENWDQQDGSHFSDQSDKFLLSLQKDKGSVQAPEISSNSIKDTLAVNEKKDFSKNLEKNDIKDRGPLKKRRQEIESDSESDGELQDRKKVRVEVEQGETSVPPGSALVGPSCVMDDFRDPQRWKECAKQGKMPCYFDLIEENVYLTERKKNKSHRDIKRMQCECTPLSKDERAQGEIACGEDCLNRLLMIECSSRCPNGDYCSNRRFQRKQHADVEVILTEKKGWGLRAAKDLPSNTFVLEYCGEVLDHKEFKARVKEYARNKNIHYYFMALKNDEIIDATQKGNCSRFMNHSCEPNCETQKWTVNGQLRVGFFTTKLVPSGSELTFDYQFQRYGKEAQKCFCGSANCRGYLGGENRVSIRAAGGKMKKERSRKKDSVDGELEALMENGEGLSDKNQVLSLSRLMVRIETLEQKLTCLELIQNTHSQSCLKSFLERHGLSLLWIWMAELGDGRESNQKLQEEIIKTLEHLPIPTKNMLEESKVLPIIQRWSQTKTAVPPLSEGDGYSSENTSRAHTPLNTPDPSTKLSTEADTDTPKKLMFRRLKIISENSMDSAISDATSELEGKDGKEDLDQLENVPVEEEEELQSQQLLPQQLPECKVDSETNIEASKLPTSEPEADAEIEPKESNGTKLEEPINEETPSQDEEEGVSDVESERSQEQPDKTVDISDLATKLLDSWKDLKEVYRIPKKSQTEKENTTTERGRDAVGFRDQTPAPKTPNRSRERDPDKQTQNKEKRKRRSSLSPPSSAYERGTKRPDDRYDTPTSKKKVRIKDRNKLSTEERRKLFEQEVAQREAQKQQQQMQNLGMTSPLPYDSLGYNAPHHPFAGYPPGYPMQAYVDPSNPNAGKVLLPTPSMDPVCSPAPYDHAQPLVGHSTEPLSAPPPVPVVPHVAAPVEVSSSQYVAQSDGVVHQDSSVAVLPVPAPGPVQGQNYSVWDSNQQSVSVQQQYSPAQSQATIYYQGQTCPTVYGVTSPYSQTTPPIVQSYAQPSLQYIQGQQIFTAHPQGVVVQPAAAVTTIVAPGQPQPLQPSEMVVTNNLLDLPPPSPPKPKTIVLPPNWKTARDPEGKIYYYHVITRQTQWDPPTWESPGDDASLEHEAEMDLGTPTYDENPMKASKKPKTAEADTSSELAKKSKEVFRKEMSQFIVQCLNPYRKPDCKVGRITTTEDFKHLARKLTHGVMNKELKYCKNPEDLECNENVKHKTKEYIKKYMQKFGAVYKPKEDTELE
UniProt P05546: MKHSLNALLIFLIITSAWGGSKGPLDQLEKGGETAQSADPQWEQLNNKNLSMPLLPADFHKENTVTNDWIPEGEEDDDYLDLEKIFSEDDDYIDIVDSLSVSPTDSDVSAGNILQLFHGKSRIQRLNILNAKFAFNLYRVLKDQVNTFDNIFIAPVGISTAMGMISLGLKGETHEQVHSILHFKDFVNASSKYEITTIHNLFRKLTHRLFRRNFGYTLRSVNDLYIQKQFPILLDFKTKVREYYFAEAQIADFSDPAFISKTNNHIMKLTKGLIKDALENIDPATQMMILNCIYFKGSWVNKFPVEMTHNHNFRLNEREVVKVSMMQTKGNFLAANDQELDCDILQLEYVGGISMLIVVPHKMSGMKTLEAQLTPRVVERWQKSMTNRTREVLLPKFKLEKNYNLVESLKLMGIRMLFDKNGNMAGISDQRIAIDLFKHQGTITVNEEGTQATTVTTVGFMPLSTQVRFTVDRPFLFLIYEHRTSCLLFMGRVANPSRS
UniProt Q9NP50: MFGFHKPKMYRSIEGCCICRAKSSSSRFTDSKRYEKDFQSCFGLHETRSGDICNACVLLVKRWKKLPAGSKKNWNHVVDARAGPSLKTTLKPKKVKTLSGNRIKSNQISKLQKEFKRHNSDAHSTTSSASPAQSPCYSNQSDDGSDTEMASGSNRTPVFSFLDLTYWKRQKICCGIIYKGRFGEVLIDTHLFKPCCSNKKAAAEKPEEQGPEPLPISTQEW

How the values were obtained:
Experiment in all cases: log2 fold change, soluble protein after heating vs DMSO (PISA); higher = thermal stabilisation; K562 cells, 10 uM, 30 min; active = over 0.2 and 3.5 SD of the protein, either way, in both replicates (recomputed)
sotrastaurin = compound: CN1CCN(c2nc(C3=C(c4c[nH]c5ccccc45)C(=O)NC3=O)c3ccccc3n2)CC1 [sotrastaurin]
Method in brief: (§1)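 Values are thermal stability changes relative to control samples and are taken from duplicates. They are stated as log2 fold changes. Before quantification by TMTpro 16plex LC-MS/MS with equalised channel sums, K562 cells at 2×10^6 cells/mL were treated with 10 μM compound for 30 min, heated in aliquots for 3 min across 48°C-58°C, pooled, extracted in PBS with 0.5% NP-40 at 4°C, and centrifuged at 21,000xg for 90 min to give the soluble supernatant.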

Tubastatin A = compound: CN1CCc2c(c3ccccc3n2Cc2ccc(C(=O)NO)cc2)C1 [Tubastatin A]
Method in brief: as §1

[1] = compound: CNC(=O)C1=CC=CC=C1NC2=NC(=NC=C2Cl)NC3=C(C=C(C=C3)N4CCOCC4)OC
Method in brief: as §1

defactinib = compound: CNC(=O)c1ccc(Nc2ncc(C(F)(F)F)c(NCc3nccnc3N(C)S(C)(=O)=O)n2)cc1 [defactinib]
Method in brief: as §1

rucaparib = compound: CNCc1ccc(-c2[nH]c3cc(F)cc4c3c2CCNC4=O)cc1 [rucaparib]
Method in brief: as §1

encorafenib = compound: COC(=O)N[C@@H](C)CNc1nccc(-c2cn(C(C)C)nc2-c2cc(Cl)cc(NS(C)(=O)=O)c2F)n1 [encorafenib]
Method in brief: as §1

[2] = compound: COC(=O)[C@H](CCSC)NC(=O)C1=C(C=C(C=C1)NC[C@H](CS)N)C2=CC=CC=C2
Method in brief: as §1

alvocidib = compound: CN1CC[C@H](c2c(O)cc(O)c3c(=O)cc(-c4ccccc4Cl)oc23)[C@H](O)C1 [alvocidib]
Method in brief: as §1

saracatinib = compound: CN1CCN(CCOc2cc(OC3CCOCC3)c3c(Nc4c(Cl)ccc5c4OCO5)ncnc3c2)CC1 [saracatinib]
Method in brief: as §1

[3] = compound: CNc1nc(-c2ccc3c(N)n[nH]c3c2)cc(N2C[C@@H](C(=O)NC3CCCCC3)CC[C@H]2C)n1
Method in brief: as §1

Measured: log2 fold change

SH3PXD2B (UniProt A1X283)
inactive: sotrastaurin -0.017 | Tubastatin A -0.013 | [1] 0.061 | defactinib 0.013 | rucaparib 0.238 | encorafenib 0.011 | [2] 0.359

SEPTIN2 (UniProt B5MCX3)
inactive: Tubastatin A -0.04 | defactinib 0 | rucaparib 0.007 | encorafenib -0.086 | [2] 0.097

SELENOM (UniProt Q8WWX9)
inactive: [1] 0.115

SERAC1 (UniProt Q96JX3)
inactive: alvocidib -0.027 | [1] 0.074 | rucaparib -0.016 | encorafenib 0.035

SEPTIN7 isoform 2 (UniProt Q16181)
inactive: Tubastatin A -0.058 | [1] -0.095

SIAH2 (UniProt O43255)
inactive: alvocidib 0.03 | defactinib 0.025 | rucaparib -0.041 | encorafenib 0.02 | [2] -0.055

SGSH (UniProt P51688)
inactive: alvocidib -0.034 | [1] 0.008

SFXN1 (UniProt D6RDG7)
inactive: Tubastatin A -0.018

SH2B1 (UniProt Q9NRF2)
inactive: defactinib -0.011 | [2] 0.002

SIGIRR (UniProt H0YDR5)
inactive: [1] 0.047 | rucaparib -0.169 | encorafenib -0.118

SEMG2 (UniProt Q02383)
inactive: sotrastaurin -0.016 | Tubastatin A 0.025 | rucaparib -0.033 | encorafenib -0.011

SHROOM1 (UniProt Q2M3G4)
inactive: alvocidib -0.273 | [1] -0.079

SESN1 isoform 2 (UniProt Q9Y6P5)
inactive: Tubastatin A -0.118

SERBP1 isoform 3 (UniProt Q8NC51)
inactive: saracatinib 0.06 | Tubastatin A -0.006 | [1] -0.083 | rucaparib 0.132 | [3] -0.12 | encorafenib 0.03

SIRT3 (UniProt Q9NTG7)
inactive: saracatinib -0.075 | [1] 0.081 | defactinib -0.019 | rucaparib -0.048 | [3] 0.322 | encorafenib -0.068 | [2] -0.009

SELENON (UniProt Q9NZV5)
inactive: sotrastaurin 0.126 | defactinib -0.027 | [2] -0.03

SKAP2 (UniProt O75563)
inactive: saracatinib -0.037 | Tubastatin A 0.043 | [1] -0.078 | [3] -0.039

SHANK2 isoform 3 (UniProt Q9UPX8)
inactive: sotrastaurin 0.015

SECISBP2 (UniProt Q96T21)
inactive: Tubastatin A 0.382

SECISBP2L (UniProt Q93073)
inactive: defactinib -0.002 | [2] 0.068

SH3GL3 isoform 3 (UniProt Q99963)
inactive: sotrastaurin -0.091 | Tubastatin A 0.196 | defactinib -0.168 | rucaparib -0.087 | encorafenib 0.084 | [2] 0.02

SELENOK (UniProt Q9Y6D0)
inactive: sotrastaurin -0.007 | alvocidib 0.033 | Tubastatin A 0.036 | [1] -0.04 | defactinib -0.043 | rucaparib -0.169 | encorafenib 0.057 | [2] -0.094

SHQ1 (UniProt Q6PI26)
inactive: saracatinib -0.105 | defactinib 0.019 | [3] 0.092 | [2] 0.162

SGTB (UniProt Q96EQ0)
inactive: sotrastaurin 0.04 | alvocidib 0.014 | Tubastatin A 0.005 | [1] 0.047 | defactinib -0.023 | rucaparib -0.009 | encorafenib 0.015 | [2] -0.007

SIK2 (UniProt Q9H0K1)
inactive: [1] -0.553 | rucaparib 0.19 | encorafenib 0.456

SFR1 isoform 2 (UniProt Q86XK3)
inactive: sotrastaurin 0.166 | alvocidib 0.019 | defactinib -0.225 | [2] 0.12

SEMA7A (UniProt O75326)
inactive: defactinib -0.033 | [2] 0.116

SHFL (UniProt Q9NUL5)
inactive: sotrastaurin -0.023 | Tubastatin A 0.147

SERPINB6, A0A2R8Y7E5
inactive: defactinib 0.056 | [2] -0.022

SEMG1 (UniProt P04279)
inactive: alvocidib 2.77

SELENOP (UniProt P49908)
inactive: sotrastaurin -0.11 | [1] -0.026

SIMC1 (UniProt Q8NDZ2)
inactive: [1] -0.036

SERPINA3 (UniProt P01011)
inactive: rucaparib -0.191 | encorafenib -0.068

SETD2 (UniProt Q9BYW2)
inactive: Tubastatin A 0.145

SH2D3A (UniProt Q9BRG2)
inactive: [1] -0.269 | defactinib 0.011 | [2] 0.057

SERPINB7 (UniProt O75635)
inactive: saracatinib -0.053 | Tubastatin A 0.191 | defactinib -0.017 | rucaparib -0.152 | [3] -0.058 | encorafenib -0.137 | [2] 0.056

SFT2D1 (UniProt Q8WV19)
inactive: sotrastaurin 0.12 | rucaparib -0.088 | encorafenib 0.053

SIX5 (UniProt Q8N196)
inactive: saracatinib -0.018 | alvocidib -0.083 | rucaparib -0.005 | [3] -0.063 | encorafenib -0.032

SERPIND1 (UniProt P05546)
inactive: alvocidib 0.129 | [1] 0.034

SINHCAF (UniProt Q9NP50)
inactive: sotrastaurin 0.838

3 records picked at random from those above, as already listed:
SINHCAF (UniProt Q9NP50)
inactive: sotrastaurin 0.838

SH2D3A (UniProt Q9BRG2)
inactive: [1] -0.269 | defactinib 0.011 | [2] 0.057

SERPIND1 (UniProt P05546)
inactive: alvocidib 0.129 | [1] 0.034
